Measured values published in patent publication US8076285B2 (Aicuris GmbH & Co. KG, priority 2006, dated 2011).

Assay: general procedure: Fmoc solid-phase peptide synthesis; 2-chlorotrityl chloride resin (Iris Biotech), 0.85 mmol/g; TBTU/DIEA
[1] = coupling step, trifluoroacetate
[2] = late stage modification step, trifluoroacetate
[3] = cyclisation step, trifluoroacetate

[3-tert-Butyl-D-alanyl]-[3-tert-butyl-L-alanyl]-[(3R)-3-amino-L-phenylalanyl]-[(3R)-3-hydroxy-L-leucyl]-L-leucyl-D-arginyl-L-isoleucyl-L-valyl-glycyl-L-seryl-L-serine C^1.11-N^3.3-lactam
step yield (late stage modification step, from compound 449A, trifluoroacetate): 10% of theory

[(3R)-3-Amino-L-phenylalanyl]-[(3R)-3-hydroxy-L-leucyl]-L-leucyl-D-arginyl-L-isoleucyl-L-allothreonyl-glycyl-[(2S)-2-amino-3-(9H-fluoren-9-ylmethoxycarbonyl)aminobutyryl]-L-serine C^1.9-N^3.1-lactam bishydrochloride
step yield (late stage modification step, of theory from 383A, trifluoroacetate): 63% of theory

[(3R)-N^2-(Benzyloxycarbonyl)-3-{(tert-butoxycarbonyl)amino}-L-phenylalanyl]-[(3R)-3-hydroxy-L-leucyl]-L-isoleucyl-D-arginyl-L-isoleucyl-L-allothreonyl-glycyl-L-seryl-L-serine trifluoroacetate
step yield [1]: 18% of theory

Benzyl [(3R)-N^2-(tert-butoxycarbonyl)-3-hydroxy-L-leucyl]-L-leucyl-D-arginyl-L-isoleucyl-L-allothreonyl-glycyl-L-alanyl-L-serinate trifluoroacetate
step yield [1]: 50% of theory

[N^2-(tert.-Butoxycarbonyl)-3-tert-butyl-D-alanyl]-[3-tert-butyl-L-alanyl]-[(3R)-3-amino-L-phenylalanyl]-[(3R)-3-hydroxy-L-leucyl]-L-leucyl-D-arginyl-L-isoleucyl-L-allothreonyl-glycyl-[L-threonyl]-L-serine C^1.11-N^3.3-lactam hydrochloride
step yield (coupling step, hydrochloride): 91% of theory

Benzyl [(3R)-N^2-(tert-butoxycarbonyl)-3-hydroxy-L-leucyl]-L-leucyl-D-arginyl-L-isoleucyl-L-allothreonyl-glycyl-[(3S)-3-hydroxy-L-asparaginyl]-L-alaninate trifluoroacetate
step yield [1]: 95% of theory

[3-tert-Butyl-D-alanyl]-[3-tert-butyl-L-alanyl]-[(3R)-3-amino-L-leucyl]-[(3R)-3-hydroxy-L-leucyl]-L-leucyl-D-arginyl-L-isoleucyl-L-allothreonyl-glycyl-[(3R)-3-hydroxy-L-asparaginyl]-L-serine C^1.11-N^3.3-lactam
step yield (late stage modification step, from compound 445A, trifluoroacetate): 53% of theory

[(3R)-N^2-(Benzyloxycarbonyl)-3-amino-L-phenylalanyl]-[(3R)-3-hydroxy-L-leucyl]-L-leucyl-D-arginyl-L-isoleucyl-L-valyl-glycyl-L-seryl-L-serine bistrifluoroacetate
step yield [2]: 99% of theory

[(3R)-N^2-(Benzyloxycarbonyl)-3-{(tert-butoxycarbonyl)amino}-L-phenylalanyl]-[(3R)-3-hydroxy-L-leucyl]-L-leucyl-D-arginyl-L-valyl-L-allothreonyl-glycyl-L-seryl-L-serine trifluoroacetate
step yield [1]: 42% of theory

{(3R)-N^2-[(9H-Fluoren-9-ylmethoxy)carbonyl]-3-amino-L-phenylalanyl}-[(3R)-3-hydroxy-L-leucyl]-L-leucyl-(N^5-benzyloxycarbonyl-D-ornithyl)-L-isoleucyl-L-allothreonyl-glycyl-L-seryl-L-serine C^1.9-N^3.1-lactam trifluoroacetate
cyclisation yield (cyclisation step, from 376A, trifluoroacetate): 48% of theory | final purity (method not given) [3]: 50% pure

[3-tert-Butyl-D-alanyl]-[3-tert-butyl-L-alanyl]-[(3R)-3-amino-L-phenylalanyl]-[(3R)-3-hydroxy-L-leucyl]-L-leucyl-D-arginyl-[3-trimethylsilyl-L-alanlyl]-L-allothreonyl-glycyl-L-seryl-L-serine C^1.11-N^3.3-lactam
step yield (late stage modification step, from compound 439A, trifluoroacetate): 26% of theory

[(3R)-3-Hydroxy-L-leucyl]-L-leucyl-D-arginyl-L phenylalanlyl-L-allothreonyl-glycyl-L-seryl-L-serine bistrifluoroacetate
final purity (method not given) [2]: 66% pure

[N^2-(tert-Butoxycarbonyl)-3-tert-butyl-D-alanyl]-[3-tert-butyl-L-alanyl]-[(3R)-3-amino-L-phenylalanyl]-[(3R)-3-hydroxy-L-leucyl]-L-leucyl-D-arginyl-L-isoleucyl-L-allothreonyl-glycyl-L-phenylalanyl-L-serine C^1.11-N^3.3-lactam Hydrochloride
step yield (coupling step, hydrochloride): 62% of theory

[(3R)-N^2-(Benzyloxycarbonyl)-3-amino-L-phenylalanyl]-[(3R)-3-hydroxy-L-leucyl]-L-norvalyl-D-arginyl-L-isoleucyl-L-allothreonyl-glycyl-L-seryl-L-serine C^1.9-N^3.1-lactam trifluoroacetate
cyclisation yield (cyclisation step, from 371A, trifluoroacetate): 77% of theory

N^2-(Benzyloxycarbonyl)-N^3-{[(3R)-3-hydroxy-L-leucyl]-L-leucyl-D-arginyl-L-isoleucyl-L-allothreonyl-glycyl-[(3S)-3-hydroxy-L-asparaginyl]-L-seryl}-(3S)-3-amino-O-methyl-D-tyrosine trifluoroacetate
step yield [2]: 99.9% of theory

[(3R)-3-Amino-4-(dimethylaminophenyl)-L-alanyl]-[(3R)-3-hydroxy-L-leucyl]-L-leucyl-D-arginyl-L-isoleucyl-L-allothreonyl-glycyl-[(3S)-3-hydroxy-L-asparaginyl]-L-serine C^1.9-N^3.1-lactam trishydrochloride
step yield [2]: 98% of theory

[3-tert-Butyl-D-alanyl]-[3-tert-butyl-L-alanyl]-[(3R)-3-amino-L-phenylalanyl]-[(3R)-3-hydroxy-L-leucyl]-L-leucyl-D-arginyl-L-isoleucyl-L-allothreonyl-glycyl-L-ornithyl-L-serine C^1.11-N^3.3-lactam
step yield (late stage modification step, from compound 441A, trifluoroacetate): 6% of theory

[(3R)-N^2-(Benzyloxycarbonyl)-3-amino-L-phenylalanyl]-[(3R)-3-hydroxy-L-leucyl]-L-leucyl-D-arginyl-L-isoleucyl-L-allothreonyl-glycyl-[(3S)-3-hydroxy-L-asparaginyl]-L-alanine C^1.9-N^3.1-lactam trifluoroacetate
cyclisation yield [3]: 93% of theory

{(3R)-N^2-[(9H-Fluoren-9-ylmethoxy)carbonyl]-3-amino-L-phenylalanyl}-[(3R)-3-hydroxy-L-leucyl]-L-leucyl-[(2R)-2-amino-4-benzyloxycarbonylaminobutyryl]-L-isoleucyl-L-allothreonyl-glycyl-L-seryl-L-serine C^1.9-N^3.1-lactam trifluoroacetate
cyclisation yield (cyclisation step, from 378A, trifluoroacetate): 85% of theory | final purity (method not given) [3]: 86% pure

[(3R)-3-Amino-L-phenylalanyl]-[(3R)-3-hydroxy-L-leucyl]-L-leucyl-D-arginyl-L-isoleucyl-L-allothreonyl-glycyl-L-asparaginyl-L-serine C^1.9-N^3.1-lactam bishydrochloride
step yield [2]: 96% of theory

[N^2-(Benzyloxycarbonyl)-D-leucyl]-L-leucyl-[(3R)-3-amino-L-phenylalanyl]-[(3R)-3-hydroxy-L-leucyl]-L-leucyl-D-arginyl-L-isoleucyl-L-threonyl-glycyl-L-asparaginyl-L-serine C N^3,3-lactam trifluoroacetate
cyclisation yield [3]: 88.3% of theory

[(3R)-N^2-(Benzyloxycarbonyl)-3-amino-L-phenylalanyl]-[(3R)-3-hydroxy-L-leucyl]-L-leucyl-D-arginyl-L-isoleucyl-L-allothreonyl-glycyl-[(3S)-3-hydroxy-L-asparaginyl]-L-alanine bistrifluoroacetate
step yield (late stage modification step, bistrifluoroacetate): 99% of theory

[(3R)-N^2-(Benzyloxycarbonyl)-3-amino-L-phenylalanyl]-[(3R)-3-hydroxy-L-leucyl]-L-leucyl-D-arginyl-L-isoleucyl-L-allothreonyl-glycyl-glycyl-L-serine C^1.9-N^3.1-lactam trifluoroacetate
cyclisation yield (cyclisation step, from 380A, trifluoroacetate): 38% of theory | final purity (method not given) [3]: 25% pure

[3-tert-Butyl-D-alanyl]-[3-tert-butyl-L-alanyl]-[(3R)-3-amino-L-phenylalanyl]-[(3R)-3-hydroxy-L-leucyl]-[3-tert-butyl-L-alanyl]-D-arginyl-L-isoleucyl-L-allothreonyl-glycyl-L-seryl-L-serine C^1.11-N^3.3-lactam
step yield (late stage modification step, from compound 434A, trifluoroacetate): 25% of theory

[(3R)-3-Hydroxy-L-leucyl]-L-leucyl-{N^5-[benzyloxycarbonyl]-N^5-[{[benzyloxycarbonyl]-amino}(imino)methyl]-D-ornithyl}-L-isoleucyl-L-allothreonyl-glycyl-L-asparaginyl-L-serine
step yield [2]: 27.9% of theory

[(3R)-3-Hydroxy-L-leucyl]-L-leucyl-D-arginyl-L-isoleucyl-L-valyl-glycyl-L-seryl-L-serine bistrifluoroacetate
final purity (method not given) [2]: 72% pure

[(3R)-N^2-(tert-Butoxycarbonyl)-3-hydroxy-L-leucyl]-L-leucyl-D-arginyl-L-isoleucyl-L-allothreonyl-glycyl-L-asparaginyl-L-serine trifluoroacetate
step yield [2]: 99% of theory

{(3R)-N^2-[(Benzyloxy)carbonyl]-3-amino-L-phenylalanyl}-[(3R)-3-hydroxy-L-leucyl]-L-leucyl-D-arginyl-L-isoleucyl-L-allothreonyl-glycyl-[(3S)-3-hydroxy-L-asparaginyl]-L-serine C^1.9-N^3.1-lactam trifluoroacetate
cyclisation yield [3]: 78.3% of theory

[3-tert-Butyl-D-alanyl]-[3-tert-butyl-L-alanyl]-[(3R)-3-amino-L-phenylalanyl]-[(3R)-3-hydroxy-L-leucyl]-L-leucyl-D-arginyl-L-isoleucyl-L-allothreonyl-glycyl-[(2S)-2,3-diaminopropionyl]-L-serine C^1.11-N^3.3-lactam
step yield (late stage modification step, from compound 432A, trifluoroacetate): 44% of theory
